Assay results reported in paper PMC7862700.
The entries are a selection whose mix differs from that of the whole data set. For some assays here: At the low end of the ranking the order means little. This is one part of the list. For some assays here: The source does not settle which construct or isoform was used.

Amino acid sequences for entries named in this document (tags omitted). A change or cut given only in a name is not applied to a line headed by its entry.
UniProt Q00613: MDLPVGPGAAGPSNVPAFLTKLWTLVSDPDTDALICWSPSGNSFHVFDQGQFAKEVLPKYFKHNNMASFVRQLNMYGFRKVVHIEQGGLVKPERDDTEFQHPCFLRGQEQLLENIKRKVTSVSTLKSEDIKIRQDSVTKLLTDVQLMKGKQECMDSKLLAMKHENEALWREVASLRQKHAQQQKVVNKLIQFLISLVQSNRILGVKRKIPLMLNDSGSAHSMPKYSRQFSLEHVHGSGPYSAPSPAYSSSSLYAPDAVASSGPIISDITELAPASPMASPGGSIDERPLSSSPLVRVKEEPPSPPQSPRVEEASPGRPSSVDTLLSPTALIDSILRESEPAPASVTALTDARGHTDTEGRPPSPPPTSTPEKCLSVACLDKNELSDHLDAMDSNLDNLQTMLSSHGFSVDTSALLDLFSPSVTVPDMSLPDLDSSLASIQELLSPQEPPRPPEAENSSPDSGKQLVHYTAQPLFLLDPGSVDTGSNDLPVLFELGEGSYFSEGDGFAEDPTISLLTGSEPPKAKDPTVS

Experiments:
[1] = target: HSF1 (UniProt Q00613); assay: DAPPL (digital affinity profiling via proximity ligation, sequencing); conditions: 10 mM Tris-HCl pH 7.5, 50 mM NaCl, 1 mM DTT, 4% glycerol, room temperature, 30 min; GST-TFs on glutathione beads, 16-mer random dsDNA library, 0.1% …; high values mean tight binding; double strand, one strand shown; scale: fold enrichment (6-mer frequency, TF over GST control)
[2] = target: T1, ELF2 (UniProt Q15723); assay: as above; conditions: 10 mM Tris-HCl pH 7.5, 50 mM NaCl, 1 mM DTT, 4% glycerol, room temperature, 30 min; GST-TFs on glutathione beads, 16-mer random dsDNA library, 0.1% …; high values mean tight binding; double strand, one strand shown; scale: fold enrichment (6-mer frequency, TF over GST control)
T1 sequence: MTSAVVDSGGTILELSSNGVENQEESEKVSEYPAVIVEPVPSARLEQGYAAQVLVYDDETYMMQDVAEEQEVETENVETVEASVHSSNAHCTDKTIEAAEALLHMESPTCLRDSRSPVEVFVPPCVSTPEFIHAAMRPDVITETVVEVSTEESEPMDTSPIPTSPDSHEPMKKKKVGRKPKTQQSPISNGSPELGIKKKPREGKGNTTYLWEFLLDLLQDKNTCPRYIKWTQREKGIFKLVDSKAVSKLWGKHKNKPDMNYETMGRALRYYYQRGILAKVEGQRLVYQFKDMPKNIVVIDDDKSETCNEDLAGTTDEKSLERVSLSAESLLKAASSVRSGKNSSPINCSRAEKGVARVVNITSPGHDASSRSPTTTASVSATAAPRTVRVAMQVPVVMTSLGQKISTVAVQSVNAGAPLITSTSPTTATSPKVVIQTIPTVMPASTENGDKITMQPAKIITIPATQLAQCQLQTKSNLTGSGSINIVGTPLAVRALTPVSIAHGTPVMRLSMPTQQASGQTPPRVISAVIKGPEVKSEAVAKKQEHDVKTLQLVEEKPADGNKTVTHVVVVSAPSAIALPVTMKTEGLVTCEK

Sequence | binding signal [1] | binding signal [2]
TCGGTT | 0.807 | 0.796
AGTCGC | 0.456 | 0.467
GTCAAT | 0.702 | 0.797
GGACTG | 0.58 | 0.681
AGCGTG | 0.339 | 0.381
ATCAGG | 0.903 | 0.993
GTCCAG | 0.782 | 0.637
GACATA | 0.756 | 0.856
GCGTAC | 0.728 | 0.873
GATCGT | 0.455 | 0.396
GCATGC | 0.816 | 0.836
GGTAGA | 0.725 | 0.621
CGGCGA | 0.634 | 0.68
GTGGGA | 0.507 | 0.571
GGAGTG | 0.319 | 0.388
CAGGGC | 0.631 | 0.755
CCGGGC | 0.564 | 0.882
CAGAGC | 0.748 | 0.797
CGTGTA | 0.631 | 0.642
GTTGGA | 0.493 | 0.479
GGGTGG | 0.651 | 0.727
TCGGCG | 0.502 | 0.5
AAGACG | 0.821 | 0.802
AGCGGT | 0.601 | 0.735
GGGTGT | 0.619 | 0.683
GACTAA | 1.13 | 0.866
GAGGAC | 0.5 | 0.59

Sequence | binding signal [1] | binding signal [2]
CGAGAG | 0.59 | 0.387
GAAGGG | 0.765 | 0.852
GGGCAA | 0.732 | 0.861
CTGAGA | 0.912 | 0.744
GCAGAC | 0.559 | 0.71
GGACGC | 0.299 | 0.401
GATGAG | 0.748 | 0.775
CACGTC | 0.626 | 0.852
GACAGC | 0.625 | 0.706
GAGAGT | 0.376 | 0.343
GAGTGG | 0.575 | 0.578
ACCGGG | 0.39 | 0.526
TCGTGC | 0.701 | 0.749
GGCATC | 0.687 | 0.872
GTATAG | 0.858 | 0.943
GCGTGT | 0.482 | 0.542
GTCGAA | 0.799 | 0.577
GTAGCC | 0.747 | 0.909
CGAGCC | 0.811 | 0.784
CAGCAA | 0.952 | 0.903
AGCCCG | 0.808 | 0.873
GGAAGG | 0.636 | 1.04
CGGGAG | 0.206 | 0.203
ACAGAC | 0.694 | 0.775
GTAGGG | 0.594 | 0.739
ACGGGC | 0.721 | 0.799
GCGAGG | 0.577 | 0.584

Sequence | binding signal [1] | binding signal [2]
GGCGGC | 0.459 | 0.525
GACCAC | 0.663 | 0.825
GTTCGG | 0.678 | 0.614
GTCGCG | 0.595 | 0.631
AGAGGA | 0.618 | 0.672
CCGAGT | 0.89 | 0.902
CAGCAG | 0.804 | 0.804
CCGTGG | 0.381 | 0.406
CGGGTG | 0.508 | 0.693
GGCTGG | 0.701 | 0.684
GGTGAC | 0.579 | 0.755
GACACG | 0.538 | 0.693
ACGTCG | 0.551 | 0.601
GCGAGT | 0.523 | 0.533
CGCAGT | 0.644 | 0.728
GATCGG | 0.451 | 0.483
TAGGGG | 0.867 | 0.783
CCCAGC | 0.845 | 0.847
AGTCTG | 0.596 | 0.584
GAACGG | 0.552 | 0.605
GAGACA | 0.347 | 0.357
TGGGGC | 0.646 | 0.739
GAGAGC | 0.33 | 0.364
GTGCGT | 0.49 | 0.592
GTTAGT | 0.773 | 0.788

Part of the list above, with tabs:
Sequence	binding signal [1]	binding signal [2]
TAGGGG	0.867	0.783
CCCAGC	0.845	0.847
AGTCTG	0.596	0.584
GAACGG	0.552	0.605
